From US10456407B2, “Combination therapy for treating cancer” (Epizyme, Inc., priority 2015, dated 2019) come the findings set out here.

What all share (assay): cells
For test [1], the system named is SU-DHL4 cells. The settings on record: Homo sapiens.
Test [2] relates to SU-DHL10 cells. Particulars: Homo sapiens.
For test [3], the system named is DOHH2 cells. Particulars: Homo sapiens.
The subject of test [4] is WSU-DLCL2 cells. The settings on record: Homo sapiens.
Test [5] relates to OCI-Ly19 cells. The settings on record: Homo sapiens.
Test [6] deals with RL cells. Particulars: Homo sapiens, 96 h, read-out: 4 Day Cpd44 IC50, Cpd44 Co-treatment.

Read-outs that look alike come from different tables or passages of the source.

As for `CCN(c1cc(-c2ccc(CN3CCOCC3)cc2)cc(C(=O)NCc2c(C)cc(C)[nH]c2=O)c1C)C1CCOCC1` [Compound 44], the IC50 in test [1] (SU-DHL-4, […], read-out: 7 Day Cpd44 IC50, 7 d Co-treatment, SU-DHL4 (Y646-Res), 7 day co-treatment with prednisolone) was found to be 510 nM; in test [1] (SU-DHL-4, read-out: 7 Day Cpd44 IC50, 4 d Cpd44 Pre/3 d Co-treat, SU-DHL4 (Y646-Res), 4 d Compound 44 pre-treatment, 3 d co-treatment with prednisolone), 35 nM; in test [2] (SU-DHL10, 96 h, read-out: 4 Day Cpd44 IC50, Cpd44 Alone), 640 nM; in test [2] (SU-DHL10, 96 h, read-out: 4 Day Cpd44 IC50, Cpd44 Co-treatment), 9.2 nM; in test [2] (SU-DHL10, […], read-out: 7 Day Cpd44 IC50, 7 d Co-treatment), 20 nM; in test [2] (SU-DHL10, read-out: 7 Day Cpd44 IC50, 4 d Pred Pre/3 d Co-treat, SU-DHL10 (Y646-Sens), 4 d prednisolone pre-treatment, 3 d co-treatment), 520 nM. For the same compound, the IC50 came out at 200 nM in test [3] (DOHH-2, 96 h, read-out: 4 Day Cpd44 IC50, Cpd44 Co-treatment, DOHH2 (WT), 4 day co-treatment with fixed concentration of prednisolone); 340 nM in test [3] (DOHH-2, […], read-out: 7 Day Cpd44 IC50, 7 d Co-treatment, DOHH2 (WT), 7 day co-treatment with prednisolone); 530 nM in test [4] (WSUDLCL2, 96 h, read-out: 4 Day Cpd44 IC50, Cpd44 Alone); 20 nM in test [4] (WSUDLCL2, 96 h, read-out: 4 Day Cpd44 IC50, Cpd44 Co-treatment); 14 nM in test [4] (WSUDLCL2, […], read-out: 7 Day Cpd44 IC50, 7 d Co-treatment); 190 nM in test [5] (OCI-LY19, 96 h, read-out: 4 Day Cpd44 IC50, Cpd44 Co-treatment, OCI-Ly19 (WT), 4 day co-treatment with fixed concentration of prednisolone). Moreover, the IC50 in test [5] (OCI-LY19, read-out: 7 Day Cpd44 IC50, 4 d Cpd44 Pre/3 d Co-treat, OCI-Ly19 (WT), 4 d Compound 44 pre-treatment, 3 d co-treatment with prednisolone) was 5.5 nM; in test [6], 9.6 nM.
